Assay results reported in paper PMC5525008.
Results are given in words; binding and its absence hold for the method and conditions named. Binding seen in cells or lysates may run through a third protein. Some binding calls cover weakened binding; strength is not graded here.

The chains behind the UniProt entries cited, without tags or fusion partners.
UniProt Q02078: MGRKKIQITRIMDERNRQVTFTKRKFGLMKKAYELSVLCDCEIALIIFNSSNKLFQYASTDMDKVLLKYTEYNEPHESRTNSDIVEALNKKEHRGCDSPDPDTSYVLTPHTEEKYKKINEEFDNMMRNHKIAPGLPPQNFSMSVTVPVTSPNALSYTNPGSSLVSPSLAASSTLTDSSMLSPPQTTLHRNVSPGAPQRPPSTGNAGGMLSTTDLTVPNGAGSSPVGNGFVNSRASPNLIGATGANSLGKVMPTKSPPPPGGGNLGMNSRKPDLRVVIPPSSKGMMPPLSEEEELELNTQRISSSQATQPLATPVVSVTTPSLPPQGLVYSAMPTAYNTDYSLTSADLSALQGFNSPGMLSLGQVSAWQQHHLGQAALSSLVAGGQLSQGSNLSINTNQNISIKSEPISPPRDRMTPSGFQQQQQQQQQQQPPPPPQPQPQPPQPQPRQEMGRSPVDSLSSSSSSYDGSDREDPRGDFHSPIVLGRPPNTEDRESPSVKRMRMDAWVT
UniProt Q13547: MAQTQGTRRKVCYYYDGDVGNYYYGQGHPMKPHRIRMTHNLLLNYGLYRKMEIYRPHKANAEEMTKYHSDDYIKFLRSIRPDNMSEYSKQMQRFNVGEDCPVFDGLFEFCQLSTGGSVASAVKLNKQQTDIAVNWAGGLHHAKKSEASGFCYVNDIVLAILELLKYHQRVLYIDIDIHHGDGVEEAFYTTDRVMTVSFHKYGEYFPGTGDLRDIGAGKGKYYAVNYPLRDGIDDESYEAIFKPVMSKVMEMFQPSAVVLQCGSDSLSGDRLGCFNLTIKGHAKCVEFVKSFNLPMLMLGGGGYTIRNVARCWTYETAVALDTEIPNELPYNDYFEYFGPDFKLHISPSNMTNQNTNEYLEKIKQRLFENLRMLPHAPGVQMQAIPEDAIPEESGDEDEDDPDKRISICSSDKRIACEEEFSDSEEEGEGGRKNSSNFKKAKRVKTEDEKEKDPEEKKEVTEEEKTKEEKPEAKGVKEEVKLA
UniProt Q14814: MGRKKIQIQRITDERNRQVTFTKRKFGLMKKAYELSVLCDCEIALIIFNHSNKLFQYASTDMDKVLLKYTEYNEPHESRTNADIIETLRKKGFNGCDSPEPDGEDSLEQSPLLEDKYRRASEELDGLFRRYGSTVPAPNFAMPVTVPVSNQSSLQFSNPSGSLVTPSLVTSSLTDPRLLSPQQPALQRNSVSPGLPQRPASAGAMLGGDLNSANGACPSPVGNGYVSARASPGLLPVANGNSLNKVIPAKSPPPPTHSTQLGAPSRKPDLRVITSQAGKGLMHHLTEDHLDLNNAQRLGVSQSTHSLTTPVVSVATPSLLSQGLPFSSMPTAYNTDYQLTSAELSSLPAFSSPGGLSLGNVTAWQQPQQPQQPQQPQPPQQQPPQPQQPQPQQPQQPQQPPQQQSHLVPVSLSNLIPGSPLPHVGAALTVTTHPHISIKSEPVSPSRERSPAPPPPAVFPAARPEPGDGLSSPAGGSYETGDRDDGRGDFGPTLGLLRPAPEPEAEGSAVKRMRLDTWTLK

Biological target: myocyte enhancer factor 2A (human (endogenous in HRECs)) (UniProt Q02078)
Assay: co-IP; whole cell extract of HRECs treated with or without 10 µM CAPE for 24 h; 500 µg protein with 1 µg primary antibody at 4°C overnight, Dynabeads Protein G 2 h; lysis buffer 20 mM Tris-HCl pH 7.5, 150 mM NaCl, 1% Triton X-100; Western blot of HDAC1 and MEF2D

Substance | binding
histone deacetylase 1 (from UniProt Q13547 1-482) (enzyme) | binds
myocyte enhancer factor 2D (from UniProt Q14814 1-521) | binds
